{
  "source": "paper PMC9192595",
  "key": {"BRCA2OB (human) [1]": {"target": "T1, BRCA2OB (human) (UniProt P51587)", "T1 sequence (looked up)": "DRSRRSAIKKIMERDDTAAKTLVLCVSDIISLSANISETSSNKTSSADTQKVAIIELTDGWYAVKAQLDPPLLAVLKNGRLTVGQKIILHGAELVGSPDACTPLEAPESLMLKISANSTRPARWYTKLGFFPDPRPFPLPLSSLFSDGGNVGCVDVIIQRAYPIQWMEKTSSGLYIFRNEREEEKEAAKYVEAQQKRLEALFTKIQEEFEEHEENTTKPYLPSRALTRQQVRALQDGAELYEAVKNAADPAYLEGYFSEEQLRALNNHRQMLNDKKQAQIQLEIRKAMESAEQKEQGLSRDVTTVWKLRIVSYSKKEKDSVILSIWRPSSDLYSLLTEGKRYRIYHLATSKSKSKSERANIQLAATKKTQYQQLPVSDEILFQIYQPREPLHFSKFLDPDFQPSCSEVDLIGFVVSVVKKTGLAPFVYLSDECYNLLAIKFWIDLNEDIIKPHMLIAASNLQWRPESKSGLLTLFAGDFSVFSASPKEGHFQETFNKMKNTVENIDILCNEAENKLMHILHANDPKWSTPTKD", "test": "EMSA", "conditions": "EMSA: 10 nM probe, 50 mM Tris-HCl pH 7.5, 100 mM KCl, 2 mM b-ME, 10% glycerol, probe pre-incubated 37 C, gel 4 C (RAD51: +1 mM MgCl2, 2 mM ATP), recombinant protein, residues 2665-3197, protein details: N-MBP, C-6xHis, label: 5' 32P, folded or branched DNA"}, "BRCA2OB (human) [2]": {"target": "T1, BRCA2OB (human)", "test": "smFRET", "conditions": "3' amino, stem 5' amino, smFRET: 50 mM Tris-HCl pH 7.9, 100 mM KCl, 20 mM NaCl, 1 mM DTT, 0.1 mg/ml BSA, 9% glycerol, 37 C, recombinant protein, residues 2665-3197, protein details: N-MBP, C-6xHis, label: 3' Cy3, stem 5' Cy5, 3' biotin"}, "BRCA2OB-D2723H (human)": {"target": "T2, BRCA2OB-D2723H (human) (UniProt P51587)", "T2 sequence (looked up)": "T1 sequence (looked up) with D59H", "test": "EMSA", "conditions": "EMSA: 10 nM probe, 50 mM Tris-HCl pH 7.5, 100 mM KCl, 2 mM b-ME, 10% glycerol, probe pre-incubated 37 C, gel 4 C (RAD51: +1 mM MgCl2, 2 mM ATP), recombinant protein, residues 2665-3197, protein details: N-MBP, C-6xHis, label: 5' 32P, folded or branched DNA"}, "BRCA2OB-R2973C (human)": {"target": "T3, BRCA2OB-R2973C (human) (UniProt P51587)", "T3 sequence (looked up)": "T1 sequence (looked up) with R309C", "test": "EMSA", "conditions": "EMSA: 10 nM probe, 50 mM Tris-HCl pH 7.5, 100 mM KCl, 2 mM b-ME, 10% glycerol, probe pre-incubated 37 C, gel 4 C (RAD51: +1 mM MgCl2, 2 mM ATP), recombinant protein, residues 2665-3197, protein details: N-MBP, C-6xHis, label: 5' 32P, folded or branched DNA"}, "RAD51 (human)": {"target": "RAD51 (human) (UniProt Q06609)", "test": "EMSA", "conditions": "1 mM MgCl2, 2 mM ATP, complex only at 250 nM RAD51, 25 nM BRCA2OB present; EMSA: 10 nM probe, 50 mM Tris-HCl pH 7.5, 100 mM KCl, 2 mM b-ME, 10% glycerol, probe pre-incubated 37 C, gel 4 C (RAD51: +1 mM MgCl2, 2 mM ATP); commercial protein; label: 5' 32P; folded or branched DNA"}, "2xMBP-BRCA2 full length": {"target": "2xMBP-BRCA2 full length (UniProt P51587)", "test": "pull-down, dot blot", "conditions": "smFRET: 50 mM Tris-HCl pH 7.9, 100 mM KCl, 20 mM NaCl, 1 mM DTT, 0.1 mg/ml BSA, 9% glycerol, 37 C, protein in a lysate after overexpression, residues 1-3418, protein details: 2xMBP, label: 5' 32P, folded or branched DNA"}, "[3]": {"target": "EGFP-BRCA2 full length (NFLAP-BRCA2) (UniProt P51587)", "test": "pull-down, dot blot", "conditions": "100 mM KCl, smFRET: 50 mM Tris-HCl pH 7.9, 100 mM KCl, 20 mM NaCl, 1 mM DTT, 0.1 mg/ml BSA, 9% glycerol, 37 C, protein in a lysate after overexpression, residues 1-3418, protein details: NFLAP (EGFP), label: 5' 32P, folded or branched DNA"}, "2xMBP-BRCA2 R2973C": {"target": "2xMBP-BRCA2 R2973C (UniProt P51587)", "test": "pull-down, dot blot", "conditions": "abrogated; smFRET: 50 mM Tris-HCl pH 7.9, 100 mM KCl, 20 mM NaCl, 1 mM DTT, 0.1 mg/ml BSA, 9% glycerol, 37 C; protein in a lysate after overexpression; residues 1-3418; protein details: 2xMBP; label: 5' 32P; folded or branched DNA"}},
  "note": "Residue numbers refer to the chain shown, from its start. For part of these data: A weaker result is weaker than the reference pair of the same experiment. For part of these data: Protein sequences can lack the tags named with them. For part of these data: At least one result comes from cells or an extract, where the contact may be indirect. For part of these data: Negatives hold for the conditions tested. For part of these data: At least one verdict rests on a figure or table, not on a statement of the authors. For part of these data: Construct, isoform or probe ends are uncertain for at least one entry.",
  "data": [
    {"sequence": "GAACTGGGACTGGGATAGGGCTAGGGAAGC [GGG4]", "values": [
      {"measurement": "binding result", "setting": "BRCA2OB (human) [1]", "value": "binds more weakly"}
    ]},
    {"sequence": "GCGTGGCACCGGTAATAGGAGATAGGAGAGGTTAGGGTTAGGGTTAGTGTTAGGGTTAG / TCTCCTATCTCCTATTACCGGTGCCACGC [TelG5-G3 smFRET]", "values": [
      {"measurement": "binding result", "setting": "BRCA2OB (human) [2]; 1 uM BRCA2OB", "value": "binds"}
    ]},
    {"sequence": "GGTTTGGGTTTGGGTTTGGGTTTGGGTTTG [TelG5TTT]", "values": [
      {"measurement": "binding result", "setting": "BRCA2OB-D2723H (human)", "value": "binds more weakly"},
      {"measurement": "binding result", "setting": "BRCA2OB-R2973C (human)", "value": "binds more weakly"},
      {"measurement": "binding result", "setting": "RAD51 (human)", "value": "binds more weakly"},
      {"measurement": "binding result", "setting": "2xMBP-BRCA2 full length; strongest", "value": "binds"},
      {"measurement": "binding result", "setting": "[3]; strongest", "value": "binds"},
      {"measurement": "binding result", "setting": "2xMBP-BRCA2 R2973C", "value": "no binding"}
    ]},
    {"sequence": "GGTTAGGGTTAGGGTTAGGGTTAGGGTTAG [TelG5]", "values": [
      {"measurement": "binding result", "setting": "BRCA2OB-D2723H (human)", "value": "binds more weakly"},
      {"measurement": "binding result", "setting": "BRCA2OB-R2973C (human)", "value": "binds more weakly"},
      {"measurement": "binding result", "setting": "RAD51 (human)", "value": "binds more weakly"},
      {"measurement": "binding result", "setting": "BRCA2OB (human) [1]; PDS (G4 ligand) present, dose-dependent", "value": "binds more weakly"},
      {"measurement": "binding result", "setting": "2xMBP-BRCA2 full length; third", "value": "binds"},
      {"measurement": "binding result", "setting": "[3]; third", "value": "binds"},
      {"measurement": "binding result", "setting": "2xMBP-BRCA2 R2973C", "value": "no binding"}
    ]},
    {"sequence": "GGTAAGGGTAAGGGTAAGGGTAAGGGTAAG [TelG5TAA]", "values": [
      {"measurement": "binding result", "setting": "BRCA2OB (human) [1]; weakest, if at all, 100 mM KCl", "value": "binds more weakly"}
    ]},
    {"sequence": "GGTTAGGGTTAGGGTTAGGGTTAG [TelG4]", "values": [
      {"measurement": "binding result", "setting": "BRCA2OB (human) [1]; slight binding, 100 mM KCl", "value": "binds more weakly"}
    ]},
    {"sequence": "GGTTAGGGTTAGGGTTAGTGTTAGGGTTAG [TelG5-G3]", "values": [
      {"measurement": "binding result", "setting": "BRCA2OB-D2723H (human); abrogated similarly", "value": "binds more weakly"},
      {"measurement": "binding result", "setting": "BRCA2OB-R2973C (human); abrogated similarly", "value": "binds more weakly"},
      {"measurement": "binding result", "setting": "2xMBP-BRCA2 full length; second", "value": "binds"},
      {"measurement": "binding result", "setting": "2xMBP-BRCA2 R2973C", "value": "no binding"}
    ]},
    {"sequence": "GCGTGGCACCGGTAATAGGAGATAGGAGAGGTAAGGGTAAGGGTAAGGGTAAGGGTAAG / TCTCCTATCTCCTATTACCGGTGCCACGC [TelG5TAA smFRET]", "values": [
      {"measurement": "binding result", "setting": "BRCA2OB (human) [2]; lower bound fraction, 0.1 and 1 uM", "value": "binds more weakly"}
    ]},
    {"sequence": "GCGTGGCACCGGTAATAGGAGATAGGAGAGGTTTGGGTTTGGGTTTGTGTTTGGGTTTG / TCTCCTATCTCCTATTACCGGTGCCACGC [TelG5TTT-G3 smFRET]", "values": [
      {"measurement": "binding result", "setting": "BRCA2OB (human) [2]; 1 uM BRCA2OB", "value": "binds"}
    ]},
    {"sequence": "GGTTGGGGTTGGGGTTGGGGTTGGGGTTGG [TelG5T2G4]", "values": [
      {"measurement": "binding result", "setting": "BRCA2OB-D2723H (human)", "value": "binds more weakly"},
      {"measurement": "binding result", "setting": "BRCA2OB-R2973C (human)", "value": "binds more weakly"},
      {"measurement": "binding result", "setting": "[3]; second", "value": "binds"}
    ]},
    {"sequence": "TTGAGGGTGGGGAGGGTGGGGAATT [c-myc]", "values": [
      {"measurement": "binding result", "setting": "BRCA2OB (human) [1]", "value": "binds more weakly"}
    ]}
  ]
}
